{"source": "patent US10483329B2", "about": "“Hole transporting material, hole transporting layer, OLED display panel electronic device comprising the same” (SHANGHAI TIANMA AM-OLED CO., LTD., priority 2016, dated 2019)", "key": {"[1]": {"test": "Hole mobility rate of the hole transporting material/layer", "type": "physicochemical", "conditions": "hole transporting layer material"}, "[2]": {"test": "Crosstalk test of OLED display panel", "conditions": "dark room, B screen, intensity ratio of green light of adjacent pixels when blue light intensity 0.1 Cd/m^2", "description": "Performance tests of the OLED display panels in the Examples and Comparison Examples were carried out.\n(2) Crosstalk test method: the program being transferred to the B screen in a dark room, testing the intensity ratio of the green light of adjacent pixels when the blue light intensity was 0.1 Cd/m^2, LGreen/LBlue;"}, "[3]": {"test": "Mask cleaning effect", "conditions": "time for all material on the red light MASK of hole transporting layer 203 to be completely cleaned, ultrasonic 40 kHz, 25° C.", "description": "(3) Mask Cleaning Effect:\nthe time required for all the materials on the MASK of the red light of the hole transporting layer 203 to be completely cleaned at a fixed ultrasonic frequency of 40 kHz and at a temperature of 25° C."}}, "data": [{"smiles": "Cc1cccc(C)c1-c1ccc(N(c2ccc(-c3ccccc3)cc2)c2ccc(-c3ccc(N(c4ccc(-c5ccccc5)cc4)c4ccc(-c5c(C)cccc5C)cc4)cc3)cc2)cc1", "note": "[Comparison Example 3]", "values": [{"measurement": "hole mobility rate", "setting": "[1]", "value": "3.5×10^−4 cm^2/V·S"}, {"measurement": "LGreen/LBlue", "setting": "[2]", "value": 1.5, "unit": "%"}, {"measurement": "Mask cleaning time", "setting": "[3]", "value": 55, "unit": "s"}]}, {"smiles": "Cc1cc(-c2ccc(N(c3ccc(-c4ccccc4)cc3)c3ccc4c(c3)C(C)(C)c3ccccc3-4)cc2)cc(C)c1N(c1ccc(-c2ccccc2)cc1)c1ccc2c(c1)C(C)(C)c1ccccc1-2", "note": "[Example 1]", "values": [{"measurement": "Mask cleaning time", "setting": "[3]", "value": "35 ^ s"}]}, {"smiles": "Cc1cccc(-c2ccc(N(c3ccc(-c4cccc(C)c4)cc3)c3ccc4c(c3)C(C)(C)c3cc(N(c5ccc(-c6cccc(C)c6)cc5)c5ccc(-c6cccc(C)c6)cc5)ccc3-4)cc2)c1", "note": "[Example 2]", "values": [{"measurement": "Mask cleaning time", "setting": "[3]", "value": "25 ^ s"}]}, {"smiles": "Cc1cccc(C)c1-c1ccc(N(c2ccc3c(c2)C(C)(C)c2ccccc2-3)c2ccc3c(c2)C(C)(C)c2cc(N(c4ccc(-c5c(C)cccc5C)cc4)c4ccc5c(c4)C(C)(C)c4ccccc4-5)ccc2-3)cc1", "note": "[Example 3]", "values": [{"measurement": "Mask cleaning time", "setting": "[3]", "value": "25 ^ s"}]}, {"smiles": "Cc1cc(N(c2ccc3c(c2)C(C)(C)c2ccccc2-3)c2ccc3c(c2)C(C)(C)c2ccccc2-3)ccc1-c1ccc(N(c2ccc3c(c2)C(C)(C)c2ccccc2-3)c2ccc3c(c2)C(C)(C)c2ccccc2-3)cc1", "note": "[Example 4]", "values": [{"measurement": "Mask cleaning time", "setting": "[3]", "value": "25 ^ s"}]}]}
